The record followed here is article PMC5372463, “Bacterial kinesin light chain (Bklc) links the Btub cytoskeleton to membranes” (Scientific Reports, 2017).

By UniProt entry, the sequences of proteins in these tests, tags left out.
UniProt Q8GCC1: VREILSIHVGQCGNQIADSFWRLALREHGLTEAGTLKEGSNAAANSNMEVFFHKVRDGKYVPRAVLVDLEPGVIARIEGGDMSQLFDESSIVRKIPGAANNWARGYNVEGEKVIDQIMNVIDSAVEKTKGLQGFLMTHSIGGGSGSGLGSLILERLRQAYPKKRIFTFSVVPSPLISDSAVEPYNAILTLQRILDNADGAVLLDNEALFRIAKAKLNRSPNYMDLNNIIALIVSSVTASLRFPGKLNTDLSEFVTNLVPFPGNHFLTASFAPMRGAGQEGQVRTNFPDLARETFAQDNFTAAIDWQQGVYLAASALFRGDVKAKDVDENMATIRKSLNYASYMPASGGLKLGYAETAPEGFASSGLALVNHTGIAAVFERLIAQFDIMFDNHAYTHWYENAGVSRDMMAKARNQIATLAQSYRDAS

Results are given in words; binding and its absence hold for the method and conditions named. For part of these data: In cells and extracts the contact can be indirect. Some results given as binding are weak or reduced against the parent protein; the word gives no strength.

Assay [1] concerns the target T1, BtubA/B heterodimer (bacterial tubulin) from Prosthecobacter dejongeii (Prosthecobacter dejongeii) (UniProt Q8GCC5+Q8GCC1). As to the kind of experiment: cryo-electron tomography; Btub filaments after 2 cycles of polymerization; heterodimers to filaments and bundles of protofilaments; both purified.
The target of assay [2] is T1, BtubA/B heterodimer (bacterial tubulin) from Prosthecobacter dejongeii (Prosthecobacter dejongeii). In words: sedimentation of polymers; BtubA/B 10 μM in polymerization buffer with 2 mM GTP, 10 min 25 °C, 100.000 x g 30 min; heterodimers to filaments; both purified.
In assay [3] the target is BtubB from Prosthecobacter dejongeii (Prosthecobacter dejongeii) (UniProt Q8GCC1). In words: co-sedimentation + SEC; BtubA and BtubB co-expressed untagged in E. coli, purified together by a cycle of polymerization/depolymerization from the cleared lysate, then Superdex 200 in 20 mM Tris-HCl, 1 mM EDTA pH 7.5, 4 °C.

With “BtubA/B heterodimer (bacterial tubulin) from Prosthecobacter dejongeii (from UniProt Q8GCC5 1-473; Q8GCC1 1-426) (complex)”, the binding result in assay [1] and in assay [2] was “binds” throughout.

B1: BtubA from Prosthecobacter dejongeii (protein, UniProt Q8GCC5 1-473)
chain: MKVNNTIVVSIGQAGNQIAASFWKTVCLEHGIDPLTGQTAPGVAPRGNWSSFFSKLGESSSGSYVPRAIMVDLEPSVIDNVKATSGSLFNPANLISRTEGAGGNFAVGYLGAGREVLPEVMSRLDYEIDKCDNVGGIIVLHAIGGGTGSGFGALLIESLKEKYGEIPVLSCAVLPSPQVSSVVTEPYNTVFALNTLRRSADACLIFDNEALFDLAHRKWNIESPTVDDLNLLITEALAGITASMRFSGFLTVEITLRELLTNLVPQPSLHFLMCAFAPLTPPDRSKFEELGIEEMIKSLFDNGSVFAACSPMEGRFLSTAVLYRGIMEDKPLADAALAAMREKLPLTYWIPTAFKIGYVEQPGISHRKSMVLLANNTEIARVLDRICHNFDKLWQRKAFANWYLNEGMSEEQINVLRASAQELVQSYQVAEESGAKAKVQDSAGDTGMRAAAAGVSDDARGSMSLRDLVDRRR
With B1, in assay [3], the binding entry is “binds”.
